Measured data: PubChem BioAssay AID686938 (Drosophila RNAi Screening Center, 2013)
The deposit covers about 23,000 reagents; this is a random part of those with a known target gene and a result. Over the whole deposit, 75 (0.33%) got an active call. 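Raw plate signals without normalisation; calls rest on plate z-scores that were not deposited; ratio present for only 364 wells.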 Unmarked entries are inactive. The numbers tell different reagents against one gene apart. Not stated in the record: the dose of the treatment.

Screen: 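Looking for CRAC channel components and the factors controlling them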 (primary screen)
Cells: Drosophila S2R+ cells
Knock-down reagent: long dsRNA against Drosophila genes, about 0.25 µg dsRNA per well, roughly 10,000 cells
Time to read-out: 5 days of knock-down before the calcium assay
Challenge: thapsigargin (SERCA pump blocker) to empty calcium stores; entry signal taken 4 min after adding it
Measured: 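Per-well fluo-4 fluorescence in two replicates, unnormalised, measured in resting cells and 4 min after store depletion by the SERCA blocker thapsigargin; ratio of the two present in few wells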
Scale: calcium entry signal: higher = stronger calcium signal after store depletion; entry to resting ratio: higher = more calcium entry relative to resting level; resting calcium signal: higher = higher resting calcium signal
Rule for the call: 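Hit if the duplicate-averaged plate z-score for entry over resting signal is under −3; wells with weak total dye signal (Fmax z < −2) or more than 5 off-targets removed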
Meaning of the calls: active = strongly reduced calcium entry; inactive = no strong reduction

no.	target gene	dsRNA no.	calcium entry signal, replicate 1 (fluorescence units)	calcium entry signal, replicate 2 (fluorescence units)	entry to resting ratio	resting calcium signal, replicate 1 (fluorescence units)	resting calcium signal, replicate 2 (fluorescence units)
1	Shc (SHC-adaptor protein)	1	2.13e7	2.71e7		1.17e7	1.18e7
2	mtd (mustard)	1	2.55e7	3.58e7		1.20e7	1.58e7
3	mtd (mustard)	2	2.80e7	3.68e7		1.24e7	1.52e7
4	mtd (mustard)	3	4.06e7	3.93e7		2.07e7	1.89e7
5	mof (males absent on the first)	1	2.84e7	3.35e7		1.78e7	2.01e7
6	CG7943	1	3.03e7	3.69e7		1.51e7	1.68e7
7	Or94b (Odorant receptor 94b)	1	5.36e7	5.61e7		2.69e7	2.27e7
8	Arp3 (Actin-related protein 3)	1	5.14e7	4.14e7		3.47e7	1.66e7
9	CG18666	1	4.15e7	6.56e7		1.89e7	2.75e7
10	IntS9 (Integrator 9)	1	3.45e7	3.98e7		1.77e7	2.94e7
11	Rift (Riboflavin transporter)	1	3.69e7	4.90e7	2	1.80e7	2.03e7
12	apn (apnoia)	1	2.77e7	3.19e7		1.36e7	4.80e7
13	CG15480	1	5.10e7	3.18e7		2.29e7	1.58e7
14	Ugt307A1 (UDP-glycosyltransferase family 307 member A1)	1	3.36e7	2.88e7		1.67e7	1.29e7
15	wisp (wispy)	1	2.58e7	2.93e7		1.35e7	1.42e7
16	wisp (wispy)	2	5.29e7	3.38e7		2.52e7	1.54e7
17	CG13606	1	4.51e7	4.50e7		2.28e7	1.91e7
18	drosha	1	3.05e7	2.94e7		1.27e7	1.23e7
19	CG14546	1	4.69e7	7.40e7		2.48e7	3.07e7
20	Rab3	1	6.08e7	4.42e7		2.48e7	2.01e7
21	gNacalpha	1	4.06e7	4.44e7		1.90e7	1.90e7
22	CG4465	1	3.86e7	4.83e7		5.59e7	1.91e7
23	CASK	1	3.59e7	4.08e7		5.46e7	2.12e7
24	CASK	2	3.67e7	3.42e7		3.64e7	1.41e7
25	CASK	3	2.25e7	3.47e7		1.36e7	5.48e7
26	CASK	4	3.41e7	4.52e7		1.62e7	2.61e7
27	Ser (Serrate)	1	4.11e7	5.94e7		2.03e7	2.39e7
28	CG6785	1	4.97e7			2.48e7	
29	CG12691	1	3.14e7	3.83e7		1.52e7	1.75e7
30	CCT3 (Chaperonin containing TCP1 subunit 3)	1	3.12e7	2.21e7		1.64e7	1.16e7
31	shv (shriveled)	1	2.79e7	2.96e7		1.41e7	1.39e7
32	shv (shriveled)	2	2.19e7	5.70e7		1.17e7	2.41e7
33	Gpat4 (Glycerol-3-phosphate acyltransferase 4)	1	4.29e7			2.02e7	
34	Synj (Synaptojanin)	1	3.32e7			1.48e7	
35	CG5883	1	3.04e7	4.04e7		1.61e7	1.77e7

Targets listed so far whose gene name begins with R or r:
target gene	dsRNA no.	calcium entry signal, replicate 1 (fluorescence units)	calcium entry signal, replicate 2 (fluorescence units)	entry to resting ratio	resting calcium signal, replicate 1 (fluorescence units)	resting calcium signal, replicate 2 (fluorescence units)
Rift (Riboflavin transporter)	1	3.69e7	4.90e7	2	1.80e7	2.03e7
Rab3	1	6.08e7	4.42e7		2.48e7	2.01e7

Further entries follow.
no.	target gene	dsRNA no.	calcium entry signal, replicate 1 (fluorescence units)	calcium entry signal, replicate 2 (fluorescence units)	entry to resting ratio	resting calcium signal, replicate 1 (fluorescence units)	resting calcium signal, replicate 2 (fluorescence units)
36	CG3803	1	4.17e7	3.80e7		2.10e7	1.82e7
37	CG13398	1	3.64e7	4.20e7		1.84e7	1.93e7
38	CG42232	1	2.88e7	2.85e7		1.37e7	1.17e7
39	CG42232	2	3.02e7	2.97e7		1.40e7	1.31e7
40	CG9899	1	3.94e7	4.38e7		2.03e7	2.04e7
41	Chro (Chromator)	1	4.75e7	4.97e7		2.67e7	3.94e7
42	Nse1 (Non-SMC element 1)	1	3.27e7			1.55e7	
43	Osi11 (Osiris 11)	1	4.19e7	2.67e7		1.87e7	1.30e7
44	up (upheld)	1	3.80e7	3.80e7		1.81e7	1.82e7
45	ccb (central complex broad)	1	3.64e7	4.04e7		2.09e7	1.85e7
46	dysf (dysfusion)	1	3.61e7	4.98e7		1.92e7	2.06e7
47	dysf (dysfusion)	2	3.39e7	5.26e7		1.95e7	2.30e7
48	dysf (dysfusion)	3	2.99e7	4.63e7		1.63e7	2.04e7
49	dysf (dysfusion)	4	3.16e7	4.13e7		1.93e7	2.15e7
50	S6KL (S6 Kinase Like)	1	5.46e7	3.24e7		2.51e7	1.64e7
51	S6KL (S6 Kinase Like)	2	4.34e7	3.35e7		2.37e7	1.64e7
52	S6KL (S6 Kinase Like)	3	3.29e7	4.25e7		1.50e7	1.86e7
53	EMC3 (ER membrane protein complex subunit 3)	1	2.01e7	3.75e7		9.84e6	1.61e7
54	Gr59b (Gustatory receptor 59b)	1	4.53e7	5.11e7		2.22e7	2.34e7
55	MED28 (Mediator complex subunit 28)	1	2.87e7	2.94e7		1.67e7	1.69e7
56	Ir85a (Ionotropic receptor 85a)	1	5.50e7	4.18e7		2.67e7	1.97e7
57	CG16868	1	4.09e7	3.67e7		1.88e7	1.73e7
58	unc-13	1	4.52e7	3.91e7		2.30e7	1.89e7
59	unc-13	2	4.46e7	3.30e7		2.36e7	1.58e7
60	unc-13	3	5.26e7	5.21e7		2.26e7	2.31e7
